From PubChem BioAssay AID2685 (National Center for Advancing Translational Sciences (NCATS), 2010)
Several values for one entry are separate records, joined by “and”; a condition that tells them apart may be missing. Equal entries are not always repeated. The list shows a part of the results. These are further read-outs of the screen, such as a control signal, another cell line or another target. No call is given for them. Most of these compounds were active or inconclusive in the main read-out, so they are no random draw. Potencies come from curve fits of mixed quality, noted in brackets.

Assay: qHTS Assay for Lipid Storage Modulators in Drosophila S3 Cells;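 for cell number change: cells counted by Cell Tracker Red CMTPX staining in the red channel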
Details: BODIPY lipid droplet fluorescence, 18-24 h; for cell number change: measured here: cell count max response, cells fed with added oleic acid
Procedure, shortened: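 Drosophila S3 cells got compounds at several concentrations plus oleic acid (400 uM solution). Laser-scanning cytometry with 488 nm excitation read lipid droplets at 500-530 nm and cells at 575-640 nm. Percent activity was relative to 20 uM Triacsin C.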

[1] = measured here: lipid fluorescence (Fed channel) AC50, cells fed with added oleic acid
[2] = measured here: cell number channel AC50, cells fed with added oleic acid

SMILES: Cn1c(CC(=O)Nc2ccccc2)c(Sc2ccccc2)c2ccccc21
- AC50 [1]: 29.1 µM [falling, single point]

SMILES: C/C(=C\c1ccco1)C1C(C#N)=C(N)Oc2n[nH]c(-c3ccccc3)c21 (configuration not stated)
- cell number change: -16.3%
- AC50 [2]: 2.91 µM [rising, partial curve]
- AC50 [1]: 3.66 µM [rising, partial curve]

SMILES: COc1ccc(/C(C)=N/NC(=O)c2ccc(CSc3cccc4cccnc34)cc2)cc1OC
- cell number change: -39.1%
- AC50 [2]: 20.6 µM [falling, single point]
- AC50 [1]: 10.3 µM [falling, partial curve]

SMILES: COc1ccccc1CO/N=C/c1cccn1-c1nccc(N(C)C)c1C#N
- AC50 [2]: 2.31 µM [rising, partial curve]

SMILES: Cc1cc2nc(C3CCCN(C(=S)Nc4ccccc4)C3)[nH]c2cc1C (configuration not stated)
- cell number change: -30.9%
- AC50 [2]: 20.6 µM [falling, single point]
- AC50 [1]: 16.4 µM [falling, single point]

SMILES: O=C(CC1CCCC1)Nc1ccc(Br)cc1
- cell number change: 13.5%

SMILES: Cc1ccc2cc3cc(C(=O)N4CCN(Cc5ccccc5)CC4)sc3nc2c1
- cell number change: -15.3%

SMILES: O=C(NC1CCCCCCC1)c1cnccn1
- cell number change: 35%
- AC50 [2]: 29.1 µM [rising, single point]
- AC50 [1]: 29.1 µM [rising, partial curve, poor fit]

SMILES: CCn1c(C)cc(O)cc1=O
- cell number change: 7.37%
- AC50 [1]: 29.1 µM [rising, single point]

SMILES: CCN(CC)S(=O)(=O)c1ccc(-c2nnc(SCC(=O)Nc3nc(C)cs3)o2)cc1
- cell number change: -13.7%
- AC50 [1]: 2.31 µM [rising, full curve]

SMILES: COc1ccc(NC2C=CS(=O)(=O)C2)c(OC)c1 (configuration not stated)
- cell number change: 11.9%
- AC50 [1]: 0.146 µM [falling, full curve]

SMILES: CN(CC(=O)Nc1c(Cl)cccc1Cl)C(=O)c1sccc1-c1ccccc1
- AC50 [2]: 3.66 µM [rising, partial curve]
- AC50 [1]: 25.9 µM [falling, single point]

SMILES: Cc1ccc(C(=O)NCCc2ccc(S(N)(=O)=O)cc2)o1
- AC50 [1]: 2.06 µM [rising, single point]

SMILES: CCOc1cc(C)nc(NCCc2ccc(OC)c(OC)c2)n1
- cell number change: 7.87%

SMILES: COCCN1C(=S)N[C@@H](c2cccc(F)c2)C(C(=O)OC)=C1C
- cell number change: -3.59% and 15.9%
- AC50 [1]: 130 nM [rising, full curve] and 3.26 µM [rising, full curve, poor fit]

SMILES: CC(C)n1c(=O)[nH]c2ccccc21
- cell number change: -50.3%
- AC50 [2]: 5.8 µM [falling, full curve]
- AC50 [1]: 29.1 µM [falling, single point]

SMILES: O=c1[nH]c2ccccc2n2cnnc12
- cell number change: 51.4%

SMILES: CCC/S(CC1CC1(Cl)Cl)=N\S(=O)(=O)c1ccc(C)cc1 (configuration not stated)
- cell number change: 44.1%
- AC50 [2]: 4.61 µM [rising, partial curve]

SMILES: COc1cc(NC(=O)CCc2nnc3ccc(N4CCOCC4)nn23)cc(OC)c1OC
- cell number change: 4.2%
- AC50 [1]: 29.1 µM [falling, single point]

SMILES: C=CCC(C(=O)NC(C)c1ccccc1)C(=O)NC(C)c1ccccc1 (configuration not stated)
- cell number change: -20.6%
- AC50 [1]: 5.8 µM [falling, partial curve]

SMILES: Cc1ccc(S(=O)(=O)NCC(=O)N2CCN(c3ccccn3)CC2)cc1
- cell number change: 9.37%

SMILES: CCCC1Cc2c(sc3nc(SC)nc(N)c23)CO1 (configuration not stated)
- cell number change: 1.93%
- AC50 [1]: 0.146 µM [falling, full curve, poor fit]

SMILES: Cc1ccc(-n2c(SCC(=O)NCC3CCCO3)nc3ccccc3c2=O)cc1C (configuration not stated)
- AC50 [2]: 6.51 µM [rising, single point]

SMILES: CCN(CC)CCCn1c2c(c(SCC(=O)N3CCCc4ccccc43)nc1=O)CCC2
- cell number change: -40.1%
- AC50 [2]: 9.2 µM [falling, partial curve]
- AC50 [1]: 0.517 µM [falling, partial curve, poor fit]

SMILES: O=C(Nc1ccc(-n2cnnn2)cc1)C1CCCN1C(=O)Nc1ccc(Br)cc1 (configuration not stated)
- cell number change: 21.9%
- AC50 [1]: 6.51 µM [falling, single point]

SMILES: CN(C)/C=C(\c1cnc(Cl)s1)S(=O)(=O)c1ccccc1
- cell number change: -36.6%
- AC50 [2]: 29.1 µM [falling, single point]
- AC50 [1]: 29.1 µM [falling, single point]

SMILES: Cn1nc(-c2ccc(Cl)cc2)c2cc(C(=O)NC3CC3)sc21
- cell number change: 6.6%
- AC50 [1]: 29.1 µM [falling, single point]

SMILES: CC(C)C(NC(=O)C1CCCCC1)C(=O)Nc1ccncc1 (configuration not stated)
- cell number change: 49.9%
- AC50 [2]: 23.1 µM [rising, partial curve]
- AC50 [1]: 20.6 µM [rising, single point]

SMILES: COc1ccc(Cl)cc1NC(=O)C/C(C)=N/NC(=O)CC#N
- AC50 [1]: 6.51 µM [falling, single point]

SMILES: CCOC(=O)C1CCCN(C(=O)/C=C/c2ccc(Cl)cc2)C1 (configuration not stated)
- cell number change: 4.1%
- AC50 [2]: 0.562 µM [falling, full curve, poor fit]

SMILES: O=C(/C=C/c1ccccc1)NC(NC(=S)Nc1ccc(Cl)cc1)C(Cl)(Cl)Cl (configuration not stated)
- cell number change: -10.5%

SMILES: CCSc1nc2ccccc2n1CC(=O)N1CCCCC1
- cell number change: 11.7%
- AC50 [1]: 0.00651 µM [falling, full curve, poor fit]

SMILES: Cc1cccc(OCCCCCn2ccnc2)c1C
- cell number change: -18.4%

SMILES: O=C(Nc1ccc(CN2CCOCC2)cc1)c1cc2ccccc2o1
- cell number change: 44.7%
- AC50 [2]: 1.84 µM [rising, single point]
- AC50 [1]: 2.06 µM [rising, partial curve]

SMILES: CCN(CC(=O)Nc1ccccc1OC)C(=O)CN1C(=O)NC(C)(c2ccc(C)cc2)C1=O (configuration not stated)
- cell number change: 13.5%
- AC50 [1]: 16.4 µM [falling, partial curve, poor fit]

SMILES: COCCOC(=O)C1=C(C)NC2=C(C(=O)CCC2)C1c1cc2c(cc1Br)OCO2 (configuration not stated)
- cell number change: 17.8%
- AC50 [1]: 2.59 µM [rising, full curve, poor fit]

SMILES: O=S(=O)(Cc1cc(-c2ccc(Cl)cc2)no1)c1ccccc1
- cell number change: 154%
- AC50 [2]: 0.013 µM [rising, full curve, poor fit]
- AC50 [1]: 10.3 µM [rising, partial curve]

SMILES: CCOC(=O)/C(=N\Nc1ccc(OC)cc1)c1csc(Nc2ccccc2)n1
- cell number change: -82.5%
- AC50 [1]: 3.26 µM [rising, partial curve]

SMILES: COc1ccc2cc(CCNC(=O)c3ccc(S(=O)(=O)N4CCOCC4)cc3)c(=O)[nH]c2c1
- cell number change: -34.5%
- AC50 [2]: 18.4 µM [falling, partial curve, poor fit]

SMILES: COc1ccc(CNC(=O)C2CCCN(C(=O)Nc3ccc(OC)cc3)C2)cc1 (configuration not stated)
- cell number change: 4.35%
- AC50 [1]: 29.1 µM [rising, single point]

SMILES: O=C(O)CCCN=CC1=C(O)CNC1=O
- cell number change: -37.5%
- AC50 [2]: 0.00517 µM [falling, full curve, poor fit]
- AC50 [1]: 0.231 µM [falling, full curve]

SMILES: O=[N+]([O-])c1ccc(F)cc1OCc1nc(-c2cccs2)no1
- cell number change: 22.1%
- AC50 [1]: 3.26 µM [rising, partial curve]

SMILES: Cn1c(/C=C/c2ccccc2)nc2ccccc21
- cell number change: 22.2%
- AC50 [1]: 0.82 µM [rising, full curve, poor fit]

SMILES: CCCCNC(=O)CSc1nnc(Cc2ccc(Cl)c(Cl)c2)c(=O)[nH]1
- cell number change: -18.3%
- AC50 [2]: 0.0651 µM [falling, full curve, poor fit]

SMILES: Nc1ccccc1SC(C[N+](=O)[O-])c1ccccc1 (configuration not stated)
- cell number change: -57.9%
- AC50 [2]: 20.6 µM [falling, single point]
- AC50 [1]: 16.4 µM [falling, single point]

SMILES: Cc1ccc(C2=C(c3ccc([N+](=O)[O-])cc3)C(=O)OC2)cc1C
- cell number change: 46%
- AC50 [2]: 6.51 µM [rising, partial curve]
- AC50 [1]: 7.31 µM [rising, partial curve, poor fit]

SMILES: CCOC(=O)c1cc(-c2ccc(C)cc2)n(CCC(=O)N2CCN(c3ccccn3)CC2)c1C
- cell number change: 36.9%
- AC50 [2]: 5.17 µM [rising, partial curve]
- AC50 [1]: 8.2 µM [rising, partial curve]

SMILES: CCOC(=O)/C(=N\Nc1ccccc1Cl)N1CCN(Cc2ccccc2)CC1
- cell number change: -21.2%
- AC50 [1]: 16.4 µM [falling, single point]

SMILES: O=C1CCCCN1CCCC(=O)N1CCCC(Nc2ccc(F)c(F)c2)C1 (configuration not stated)
- cell number change: -16.1%
- AC50 [1]: 0.82 µM [rising, single point]

SMILES: c1ccc2[nH]c(CSc3ncnc4c3oc3ccccc34)nc2c1
- AC50 [1]: 6.51 µM [falling, single point]

SMILES: O=C(Nc1ccccc1-c1nnn(CC(=O)N2CCOCC2)n1)c1ccc(F)cc1
- cell number change: -40.8%
- AC50 [2]: 29.1 µM [falling, single point]
- AC50 [1]: 29.1 µM [falling, single point]

SMILES: CCC1CCCCN1CCCNC(=O)CS(=O)Cc1nc(-c2ccc(OC)c(OC)c2)oc1C (configuration not stated)
- cell number change: 27.4%

SMILES: CC(C)C(=O)Nc1ccccc1N1CCN(C(=O)c2ccccc2)CC1
- cell number change: 21.9%
- AC50 [1]: 0.58 µM [rising, single point]

SMILES: Cc1cccc(-n2cnc(C(=O)NNC(=S)Nc3ccc(Cl)cc3)c2)n1
- cell number change: 7.95%
- AC50 [2]: 4.11 µM [rising, single point]

SMILES: CCOC(=O)[C@H]1[C@H]2COc3ccc(Cl)cc3[C@@H]2N2C(=O)c3cc(Cl)ccc3NC(=O)[C@@]12C
- cell number change: -36.6%
- AC50 [2]: 16.4 µM [falling, single point]

SMILES: COC(=O)c1sc(NC(=O)COc2cccc(C)c2)nc1C
- cell number change: 14.6%
- AC50 [1]: 20.6 µM [rising, single point]

SMILES: COc1ccc(S(=O)(=O)N2CCN(C(=O)c3ccccn3)CC2)cc1
- cell number change: -101%
- AC50 [2]: 25.9 µM [falling, partial curve, poor fit]

SMILES: CC(=O)Nc1ccc(-c2csc(NC(=O)C3CC(=O)N(c4ccc5c(c4)OCCO5)C3)n2)cc1 (configuration not stated)
- cell number change: 16.5%
- AC50 [1]: 1.46 µM [rising, partial curve]
